Measured values reported in publication PMC7819943, “Rice protein-binding microarrays: a tool to detect cis-acting elements near promoter regions in rice”.
Some of the results follow.

By UniProt entry, the sequences of proteins in these tests, tags left out.
UniProt Q0JBA9, entry or part of it: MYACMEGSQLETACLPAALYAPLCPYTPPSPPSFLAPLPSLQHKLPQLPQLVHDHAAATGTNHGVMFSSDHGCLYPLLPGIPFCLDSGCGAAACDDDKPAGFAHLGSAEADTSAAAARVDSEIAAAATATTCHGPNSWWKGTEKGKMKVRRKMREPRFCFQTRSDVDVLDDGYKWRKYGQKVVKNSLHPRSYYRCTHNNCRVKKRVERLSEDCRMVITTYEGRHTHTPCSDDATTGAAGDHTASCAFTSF

target: OsWRKY34 (Oryza sativa, UniProt Q0JBA9 1-250); assay: protein-binding microarray (RPBM); PBS, 2% BSA, 51.3 ng/ul salmon testes DNA, 50 uM zinc acetate, 200 nM TF, 25 C, 1 h; high values mean tight binding; conditions: protein: recombinant; tags: N-terminal polyhistidine and DsRed monomer fusion (pET32a); label: CyDye5-dUTP incorporated in the synthesized complementary strand; 3' TTTTT single-stranded linker to array surface; dsDNA, one strand shown
Summary of the method: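 The binding signal is fluorescence intensity per array feature (arbitrary units). Readings came from an Axon 4000B scanner after a washed, 2% BSA-blocked, double-stranded custom Agilent array had been incubated for 1 h at 25 °C with 200 nM protein and 50 µM zinc acetate. The protein was a Ni–NTA-purified transcription factor fused N-terminally to polyhistidine and DsRed, expressed in E. coli BL21-CodonPlus.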

Sequence	binding signal
TCCTCACAAATCTCGTGCGCGCCACCGTCATCTCCGGCGACGGAGTCACCTAGTGCAG	10300 fluorescence intensity (a.u.)
CGATCCTCTTTCGTGTTGCCTGCCGCCTGCCGCCTGCCGCCGGAGTCACCTAGTGCAG	8950 fluorescence intensity (a.u.)
CTCATCACCCACAGCCGCACGCCGCCGTCCACCGGTCGCCCGGAGTCACCTAGTGCAG	8192 fluorescence intensity (a.u.)
TGTTGACTTTTTAGTACATATTTAACCATTTGTCTTATTACGGAGTCACCTAGTGCAG	14900 fluorescence intensity (a.u.)
AGGCCTTCTGTCCCGTTTGTTGAACTCATTGTCGACATTTCGGAGTCACCTAGTGCAG	8200 fluorescence intensity (a.u.)
CGCGCTGATTTGACTTCCGGTTTGAAATACCACCACACCACGGAGTCACCTAGTGCAG	8280 fluorescence intensity (a.u.)
CTAAACATATAGCAAACCAGATATGCTAACTTTTGCTCAGCGGAGTCACCTAGTGCAG	8240 fluorescence intensity (a.u.)
GCCTTTATCTTTCGTATGTTGCTTTTAAAACCATTCACCACGGAGTCACCTAGTGCAG	11800 fluorescence intensity (a.u.)
CCTGGAACTGATATCCTGAACTTGTTATTTCTTTTAACTTCGGAGTCACCTAGTGCAG	9180 fluorescence intensity (a.u.)
CCCGTCCCGCTGGTCTCCATCAATTCCTCCTTAACCCAACCGGAGTCACCTAGTGCAG	8230 fluorescence intensity (a.u.)
TGGCGCGCCGCGCGTCCACCAGTCCACCGCTCCGCCACTCCGGAGTCACCTAGTGCAG	10600 fluorescence intensity (a.u.)
CTTTCCGCGGTCCTTTTGCTCGGTTCAGCACGCACGCGGGCGGAGTCACCTAGTGCAG	9440 fluorescence intensity (a.u.)
GAACCATTATAATCCTTGTCTTTTGTTTGTTTTGATGTCGCGGAGTCACCTAGTGCAG	8970 fluorescence intensity (a.u.)
TCCCCACGCCGCGCCGCCCGCCTGACCTCAGCCACGCACACGGAGTCACCTAGTGCAG	10500 fluorescence intensity (a.u.)
CTGTCTACTCGCACTCGCCGCCGCTGCCGTTCCCCATCCCCGGAGTCACCTAGTGCAG	9840 fluorescence intensity (a.u.)
AAGGACAACATCATCATCCATGACCATGCTGACAGCGCGCCGGAGTCACCTAGTGCAG	8380 fluorescence intensity (a.u.)
GAATTCTCAAAGGCCTACAAGATTTTCTCTTTCTTTTTCCCGGAGTCACCTAGTGCAG	8920 fluorescence intensity (a.u.)
TCGTCGTTCTTGTGCTTGTTTTCCGTCGAATCCTCGTGCACGGAGTCACCTAGTGCAG	9310 fluorescence intensity (a.u.)
TACCTCGCATGCCACGCAGTCCCACGTACGCCTCTCGTGTCGGAGTCACCTAGTGCAG	9040 fluorescence intensity (a.u.)
TTTCGGTTTTGCTACTTCACATGCGCATATTTTTGGAGGGCGGAGTCACCTAGTGCAG	9330 fluorescence intensity (a.u.)
ACCAACTCACAAATTCCTTCCGCTACTCATCTACTCTACTCGGAGTCACCTAGTGCAG	9800 fluorescence intensity (a.u.)

Laid out differently: results already given
Sequence | binding signal
CTGTCTACTCGCACTCGCCGCCGCTGCCGTTCCCCATCCCCGGAGTCACCTAGTGCAG | 9840 fluorescence intensity (a.u.)
AAGGACAACATCATCATCCATGACCATGCTGACAGCGCGCCGGAGTCACCTAGTGCAG | 8380 fluorescence intensity (a.u.)
GAATTCTCAAAGGCCTACAAGATTTTCTCTTTCTTTTTCCCGGAGTCACCTAGTGCAG | 8920 fluorescence intensity (a.u.)

Next results

Sequence	binding signal
CCCCGTCGTTGTCGCCACCTACTTCTACCTGCGCGGATTCCGGAGTCACCTAGTGCAG	10800 fluorescence intensity (a.u.)
ATCTGCTTTTCTGTCATGTAGTCTTGCAAGAACTTCCGAACGGAGTCACCTAGTGCAG	11300 fluorescence intensity (a.u.)
CCCTTGTTCGTCCCTCTTGCATCGGACGGTGCACGTTTTCCGGAGTCACCTAGTGCAG	11900 fluorescence intensity (a.u.)
CGGCGTCTCTACCTCTACGAATCAGGTCAGGCTTCGATCCCGGAGTCACCTAGTGCAG	8380 fluorescence intensity (a.u.)
TCTCTGGCTCTTTTACCTCAATCTCGTATATACTCTGGTACGGAGTCACCTAGTGCAG	8830 fluorescence intensity (a.u.)
AAAACACTCGGGTATACGTCCACTCGTTTTTTACATGTCACGGAGTCACCTAGTGCAG	8820 fluorescence intensity (a.u.)
ACCGTTCTTAGCTATGGGTTGCCGCCGCAACGGCCTAAATCGGAGTCACCTAGTGCAG	8080 fluorescence intensity (a.u.)
GCCGCCGCCGCCGTCTGCACCCGCGTCAGCGCTCCACAAACGGAGTCACCTAGTGCAG	8680 fluorescence intensity (a.u.)
TTCCCTACCAGTCTCATCCCAGACTAGTTTTAATCTGACTCGGAGTCACCTAGTGCAG	8410 fluorescence intensity (a.u.)
GATCCACACCAGATACACGCTCAAAACCCATCTCTGTTCACGGAGTCACCTAGTGCAG	9770 fluorescence intensity (a.u.)
GATTATGTACAACATTCTTCACTACAATTTTACATTTTGGCGGAGTCACCTAGTGCAG	9340 fluorescence intensity (a.u.)
TCTATATGGACTCTGTCTTTTCTTTTTCTCTCCGATTAATCGGAGTCACCTAGTGCAG	8460 fluorescence intensity (a.u.)
ATCCGGCCCATCTACCACGAGCTCTTCAGCCCGTCGGCCCCGGAGTCACCTAGTGCAG	8460 fluorescence intensity (a.u.)
CCTCCTCGCCCGCCGCTTCCGCCGATCCCCATCCTAGCCACGGAGTCACCTAGTGCAG	8680 fluorescence intensity (a.u.)
AATTTTCATTTGCTTTTCGAAGTCCATTTTTCAGTAGTCCCGGAGTCACCTAGTGCAG	8400 fluorescence intensity (a.u.)
TGTCAACCGTAAGCTGCTTGAGCGCGTCGCTTTCTTTCTTCGGAGTCACCTAGTGCAG	8060 fluorescence intensity (a.u.)
TTTTTTCGGTCTCGGTATCGGTCTTTTCGGTTCGATCTTACGGAGTCACCTAGTGCAG	8400 fluorescence intensity (a.u.)
AGCTTTGTTGTGCATTTGATTCATTATAACTATGGTTTCTCGGAGTCACCTAGTGCAG	10000 fluorescence intensity (a.u.)
TACGGTTCGTTATAGACGTCTAGTGTTCACTGCTATTTCTCGGAGTCACCTAGTGCAG	9340 fluorescence intensity (a.u.)
CGAGGAGGTAGATGGGCTCCGGCGCCGGGGTGGGGTGGTGCGGAGTCACCTAGTGCAG	8940 fluorescence intensity (a.u.)
AGCTCTCTCATGCATTGCCTCGTTTTTCTCTATAGACTATCGGAGTCACCTAGTGCAG	11400 fluorescence intensity (a.u.)
